The structures given here were assigned with low confidence; some may be wrong.

By UniProt entry, the sequences of proteins in these tests, tags left out.
UniProt O88943, whole entry: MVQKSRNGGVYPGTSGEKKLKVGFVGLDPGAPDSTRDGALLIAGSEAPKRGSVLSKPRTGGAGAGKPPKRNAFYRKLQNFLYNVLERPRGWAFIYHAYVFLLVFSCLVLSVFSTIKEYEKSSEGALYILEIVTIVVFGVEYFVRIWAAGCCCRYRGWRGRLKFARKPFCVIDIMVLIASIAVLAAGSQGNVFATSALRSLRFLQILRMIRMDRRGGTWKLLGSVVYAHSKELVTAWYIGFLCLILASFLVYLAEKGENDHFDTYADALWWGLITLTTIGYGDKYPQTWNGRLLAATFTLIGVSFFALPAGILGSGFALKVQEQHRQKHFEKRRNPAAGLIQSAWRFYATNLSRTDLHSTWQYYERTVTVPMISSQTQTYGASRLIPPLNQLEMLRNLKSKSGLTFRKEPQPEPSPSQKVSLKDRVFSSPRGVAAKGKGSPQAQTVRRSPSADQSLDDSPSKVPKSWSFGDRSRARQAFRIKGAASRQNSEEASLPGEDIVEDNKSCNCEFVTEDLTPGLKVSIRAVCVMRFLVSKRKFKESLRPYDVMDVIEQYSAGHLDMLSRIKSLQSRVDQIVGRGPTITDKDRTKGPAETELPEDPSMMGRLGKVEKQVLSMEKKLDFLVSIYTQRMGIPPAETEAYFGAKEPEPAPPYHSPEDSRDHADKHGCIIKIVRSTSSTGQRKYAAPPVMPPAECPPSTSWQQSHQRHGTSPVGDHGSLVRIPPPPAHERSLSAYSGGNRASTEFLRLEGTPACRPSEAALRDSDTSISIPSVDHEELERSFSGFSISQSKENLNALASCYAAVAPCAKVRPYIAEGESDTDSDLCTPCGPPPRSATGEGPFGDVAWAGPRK
UniProt O88944, whole entry: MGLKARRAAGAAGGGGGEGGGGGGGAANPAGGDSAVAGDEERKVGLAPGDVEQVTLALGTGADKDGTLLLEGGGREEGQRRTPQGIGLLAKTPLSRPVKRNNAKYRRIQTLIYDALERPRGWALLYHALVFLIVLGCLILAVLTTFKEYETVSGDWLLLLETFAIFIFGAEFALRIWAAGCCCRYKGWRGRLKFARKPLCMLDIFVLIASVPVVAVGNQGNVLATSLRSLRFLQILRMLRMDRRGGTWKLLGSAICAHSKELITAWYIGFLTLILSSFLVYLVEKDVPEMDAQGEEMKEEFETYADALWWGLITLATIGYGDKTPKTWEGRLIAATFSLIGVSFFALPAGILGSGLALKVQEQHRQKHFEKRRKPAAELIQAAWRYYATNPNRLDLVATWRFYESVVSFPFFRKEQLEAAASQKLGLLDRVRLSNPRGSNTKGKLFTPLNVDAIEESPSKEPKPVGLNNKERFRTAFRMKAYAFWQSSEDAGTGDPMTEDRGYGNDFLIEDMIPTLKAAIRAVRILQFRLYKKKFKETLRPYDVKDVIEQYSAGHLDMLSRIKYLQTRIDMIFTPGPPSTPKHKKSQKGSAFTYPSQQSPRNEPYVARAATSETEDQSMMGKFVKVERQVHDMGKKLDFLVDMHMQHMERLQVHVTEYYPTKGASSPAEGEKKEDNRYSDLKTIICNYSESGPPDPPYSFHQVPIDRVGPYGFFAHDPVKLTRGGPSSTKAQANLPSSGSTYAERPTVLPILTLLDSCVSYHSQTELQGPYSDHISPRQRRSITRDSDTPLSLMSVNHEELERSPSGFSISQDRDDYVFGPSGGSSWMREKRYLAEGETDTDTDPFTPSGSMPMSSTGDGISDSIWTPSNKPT

The target in this experiment is KCNQ 2/3 (Rattus norvegicus, UniProt O88943+O88944). In words: KCNQ 2/3 activator assay by rubidium (Rb+) efflux from NGF-differentiated PC-12 cells. The note with it: depolarization buffer 15 mM KCl, 10 min, compounds of formula B. The procedure:
Compounds of the following formula were assayed as KCNQ 2/3 activators by measuring rhubidium release.
PC-12 cells were grown at 37° C. and 5% CO2 in DMEM/F12 Medium supplemented with 10% horse serum, 5% fetal bovine serum, 2 mM glutamine, 100 U/ml penicillin, 100 U/ml streptomycin. They were plated in poly-D-lysine-coated 96-well cell culture microplates at a density of 40,000 cells/well and differentiated with 100 ng/ml NGF-7s for 2-5 days. For the assay, the medium was aspirated and the cells were washed once with 0.2 ml in wash buffer (25 mM Hepes, pH 7.4, 150 mM NaCl, 1 mM MgCl2, 0.8 mM NaH2PO4, 2 mM CaCl2). The cells were then loaded with 0.2 ml Rb^+ loading buffer (wash buffer plus 5.4 mM […], 5 mM glucose) and incubated at 37° C. for 2 h. […] If collected samples were not immediately analyzed for Rb^+ contents by atomic absorption spectroscopy (see below), they were stored at 4° C. without any negative effects on subsequent Rb^+ analysis.
The concentration of Rb^+ in the supernatants (Rb^+ sup) and cell lysates (Rb^+Lys) was quantified using an ICR8000 flame atomic absorption spectrometer (Aurora Biomed Inc., Vancouver, B.C.) under conditions defined by the manufacturer. […] The amount of Rb^+ in the sample was measured by absorption at 780 nm using a hollow cathode lamp as light source and a PMT detector. […]

As for `CCOC(=O)Nc1ccc(OCc2ccccc2C(F)(F)F)cc1N`, the EC50 was more than 30 µM.

For orientation: EC50 means the concentration needed to bring the measured effect to its halfway point. Read a high EC50 as a need for much substance.

These data come from patent US8722929B2, “N-[2-amino-4-(phenylmethoxy)phenyl] amides and related compounds as potassium channel modulators” (Valeant Pharmaceuticals International, priority 2006, dated 2014).
